Laboratory results from PubChem BioAssay AID1347076 (National Center for Advancing Translational Sciences (NCATS), 2019).
Out of some 400,000 compounds screened, about 13,000 (3.2%) were called active. Inconclusive results, whose numbers are uncertain, are shown with a selection of clear calls. Calls come from the whole dose curve; as a rule, active = well fitted cell-killing curve with a large enough effect; inconclusive = small, poorly fitted or top-dose-only effect, or effect the other way; inactive = flat fitted curve, though single readings scatter. Potencies of inconclusive entries are doubtful fits and often do not repeat.

Experiment: qHTS assay for MDR1-selective chemotherapeutics: Primary screen using the drug-selected MDR subline cells KB-V1; note: nearly all actives have a fitted effect of over 60% in size
Details: KB-V1 MDR cells viability, CellTiter-Glo, 72 h; activity change, negative = cytotoxicity: at 46.1 µM (top of the series)
Procedure, shortened: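 KB-V1 MDR subline cells in DMEM (phenol-red free, 10% FBS) exposed to compounds in qHTS concentration series for 72 h at 37 degrees C. Viability read by CellTiter-Glo luminescence; concentration-effect curves fitted after normalization and correction.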
% is set by controls: 0 for no effect and ±100 for the full control effect; potency is the fitted concentration of half-maximal effect.

| SMILES | activity change, negative = cytotoxicity | Potency |
| --- | --- | --- |
| O=C(NCc1ccccc1)C(c1cc2ccccc2o1)n1c(=O)c(-c2ccccc2)nc2ccccc21 (stereo not given) | inactive: -20.5% |  |
| CN(C(=O)COC(=O)/C=C/c1cccs1)C1CCCCC1 | inactive: -7.06% |  |
| CCCc1nc2ccc(Cl)cn2c1Cc1ccsc1 | inactive: 0.723% |  |
| O=C(COC(=O)c1cc(Br)ccc1O)Nc1ccc2c(c1)OCCO2 |  | inconclusive: 7.31 µM [rising, partial curve, poor fit] |
| COc1ccc(C(C)=O)cc1Cn1c(C)c(C(=O)NC2CC2)sc1=O |  | inconclusive: 29.1 µM [cytotoxic, single point] |
| CSc1nc(C(=O)N2CCCC(C(=O)c3ccc(Cl)cc3)C2)cs1 (stereo not given) |  | inconclusive: 18.4 µM [cytotoxic, partial curve, poor fit] |
| CCCCn1c(N)c(N(Cc2ccccc2OC)C(=O)c2cc(=O)[nH]c3ccccc23)c(=O)[nH]c1=O |  | inconclusive: 29.1 µM [rising, partial curve, poor fit] |
| CC(C)(C)n1nnnc1CN(Cc1ccco1)Cc1cc2cc3c(cc2[nH]c1=O)OCO3 |  | inconclusive: 16.4 µM [cytotoxic, partial curve] |
| O=C(c1ccc2ccccc2c1)C1CCCN(C(=O)c2cccnc2)C1 (stereo not given) |  | inconclusive: 29.1 µM [cytotoxic, single point] |
| O=C1/C(=C/c2ccccc2)CCc2ccc(Cl)nc21 |  | active: 20.6 µM |
| COCCN(C(=S)Nc1cccc(OC)c1)C(C)c1cccs1 (stereo not given) | inactive: -12.7% |  |
| COc1cc(NC(=O)CSCc2cnn(-c3ccccc3)c2-n2cccc2)cc(OC)c1 |  | inconclusive: 9.2 µM [cytotoxic, partial curve, poor fit] |
| CSc1ncc(Cl)c(C(=O)N(Cc2ccccc2Cl)C2CCS(=O)(=O)C2)n1 (stereo not given) | inactive: -7.72% |  |
| COCCn1nnnc1C(CC(C)C)N1CCN(c2cccc(OC)c2)CC1 (stereo not given) |  | inconclusive: 14.6 µM [cytotoxic, partial curve, poor fit] |
| Cc1cc(NC(=O)OC(C)(C)C)c(-n2nnnc2C(C(=O)c2ccccc2)N2CCOCC2)cc1C (stereo not given) | inactive: -24.6% |  |
| CCOc1ccc(C(=O)OCc2cc(=O)n3nc(C4CCCCC4)sc3n2)cc1 | inactive: -12.1% |  |
| O=C(Nc1ccc(F)c(F)c1)C1CCN(S(=O)(=O)c2cccs2)CC1 |  | active: 16.4 µM |
| COc1cccc(N(C(=O)c2csnn2)C(C(=O)NC2CCCC2)c2ccccc2)c1 (stereo not given) |  | inconclusive: 2.91 µM [cytotoxic, full curve] |
| Cc1cc(C)cc(NC(=O)NCCn2nnc3cc(S(=O)(=O)N(C)C)ccc32)c1 | inactive: 0% |  |
| Cc1ccc(S(=O)(=O)N(CCCO)CC(O)CON=C2c3ccccc3-c3ccccc32)cc1 (stereo not given) |  | inconclusive: 25.9 µM [cytotoxic, partial curve, poor fit] |
| Cc1ccc(COc2ccc(/C=N/NC(=O)c3ccc(CN4CCOCC4)cc3)cc2)cc1 |  | inconclusive: 18.4 µM [cytotoxic, single point] |
| Cc1cnc(C(=O)NC2CC(C)(C)Cc3c2cnn3-c2ccccc2)cn1 (stereo not given) |  | inconclusive: 6.51 µM [cytotoxic, partial curve] |
| CN1CCN(C2=C(Cl)C(=O)N(C3CCCCC3)C2=O)CC1 |  | inconclusive: 16.4 µM [cytotoxic, single point] |
| Cc1cc(C)n2nc(C(=O)Nc3ccn(Cc4ccccc4C)n3)cc2n1 | inactive: -7.4% |  |

| SMILES | activity change, negative = cytotoxicity | Potency |
| --- | --- | --- |
| CN(C(=O)COC(=O)c1cc[n+]([O-])cc1)c1ccccc1 | inactive: 21.9% |  |
| CC(=O)c1cccc(CN2CCCCC2C(=O)Nc2ccc(Oc3ccccc3)nc2)c1 (stereo not given) |  | inconclusive: 16.4 µM [cytotoxic, single point] |
| Cc1sc2ncn(CC(=O)Nc3cccc(C(F)(F)F)c3)c(=O)c2c1S(=O)(=O)N1CCC(C)CC1 | inactive: -11.4% |  |
| CSc1nc(NC(C)(C)C)nc(Oc2ccc(=O)n(C)n2)n1 | inactive: 0% |  |
| NC(=O)c1ccccc1NC(=O)/C=C/c1ccc(Cl)cc1 |  | active: 14.6 µM |
| CC(C)CC(c1nnnn1Cc1ccco1)N1CCN(c2cccc(Cl)c2)CC1 (stereo not given) |  | inconclusive: 9.2 µM [cytotoxic, partial curve] |
| O=S(=O)(c1ccccc1)N1CCN(c2ncnc3scc(-c4ccccc4)c23)CC1 |  | inconclusive: 32.6 µM [cytotoxic, single point] |
| Cc1ccc(S(=O)(=O)NCCNC(=O)c2nonc2N)cc1 |  | inconclusive: 6.51 µM [rising, partial curve, poor fit] |
| CC(C)Oc1ccc(C(=O)/C(=C\c2cccs2)c2nc3ccccc3o2)cc1 |  | inconclusive: 16.4 µM [cytotoxic, single point] |
| COc1ccc(NC(=O)CSc2nc3[nH]ncc3c(=O)[nH]2)c(OC)c1 |  | inconclusive: 29.1 µM [rising, single point] |
| Cn1c(SCC(=O)c2ccc(-c3ccccc3)cc2)nnc1-c1ccco1 |  | inconclusive: 18.4 µM [cytotoxic, single point] |
| COc1ccc(C(=O)n2cc(C(=O)c3cc(C)ccc3O)cn2)cc1OC |  | inconclusive: 32.6 µM [cytotoxic, single point] |
| CCCc1c(C(=O)N/N=C/c2cccnc2)nnn1-c1nonc1N |  | inconclusive: 2.59 µM [cytotoxic, partial curve, poor fit] |
| O=C1CC(/C=C/c2ccc(Cl)cc2)=Nc2ccccc2N1 |  | inconclusive: 29.1 µM [cytotoxic, single point] |
| Cc1cccc(Cn2c(CN3CCC(C(=O)NCCc4ccccc4)CC3)cc3ccccc32)c1 |  | inconclusive: 25.9 µM [cytotoxic, single point] |
| O=C(/C=C/c1ccc2c(c1)OCO2)Nc1nc2ccccc2s1 |  | inconclusive: 23.1 µM [cytotoxic, partial curve, poor fit] |
| Cc1ccc(/C=C2/Sc3ccccc3N(CC(=O)NCCCOC(C)C)C2=O)cc1 |  | active: 23.1 µM |
| Cc1ccnc(NC(=O)/C=C/c2cccs2)c1 |  | active: 11.6 µM |
| O=C(c1ccc(Br)s1)N1CCN(C/C=C/c2ccccc2)CC1 |  | active: 14.6 µM |
| O=C(CN(Cc1ccccc1)S(=O)(=O)c1ccccc1)N/N=C/c1ccc([N+](=O)[O-])cc1 |  | active: 2.06 µM |
| CCC(c1nc2ccccc2[nH]1)n1c(-c2ccnc(Cl)c2)nc2ccccc21 (stereo not given) |  | inconclusive: 20.6 µM [cytotoxic, partial curve] |
| Cc1ccc(C2CC(=O)C=C(NCc3ccccc3)C2)cc1 (stereo not given) |  | active: 20.6 µM |
| O=C(Nc1ccccc1Oc1ccccc1)c1cc([N+](=O)[O-])ccc1Cl |  | inconclusive: 29.1 µM [cytotoxic, single point] |
| O=C(NCc1ccc(F)cc1)C1CCCN(c2nc3ccsc3c(=O)s2)C1 (stereo not given) |  | inconclusive: 8.2 µM [cytotoxic, partial curve] |

Six consecutive compounds out of the list so far, for reference:

| SMILES | activity change, negative = cytotoxicity | Potency |
| --- | --- | --- |
| CCCc1c(C(=O)N/N=C/c2cccnc2)nnn1-c1nonc1N |  | inconclusive: 2.59 µM [cytotoxic, partial curve, poor fit] |
| O=C1CC(/C=C/c2ccc(Cl)cc2)=Nc2ccccc2N1 |  | inconclusive: 29.1 µM [cytotoxic, single point] |
| Cc1cccc(Cn2c(CN3CCC(C(=O)NCCc4ccccc4)CC3)cc3ccccc32)c1 |  | inconclusive: 25.9 µM [cytotoxic, single point] |
| O=C(/C=C/c1ccc2c(c1)OCO2)Nc1nc2ccccc2s1 |  | inconclusive: 23.1 µM [cytotoxic, partial curve, poor fit] |
| Cc1ccc(/C=C2/Sc3ccccc3N(CC(=O)NCCCOC(C)C)C2=O)cc1 |  | active: 23.1 µM |
| Cc1ccnc(NC(=O)/C=C/c2cccs2)c1 |  | active: 11.6 µM |

Remaining list, next part:

| SMILES | activity change, negative = cytotoxicity | Potency |
| --- | --- | --- |
| Cc1ccccc1NC(=O)C(Cl)=C(Cl)Cl |  | inconclusive: 29.1 µM [cytotoxic, single point] |
| O=C(CSc1nc2nn(-c3ccccc3)c(=O)c-2c2n1CCCCC2)c1ccc(O)c(O)c1 |  | inconclusive: 14.6 µM [cytotoxic, partial curve] |
| CCOC(=O)c1ccc(NC(=O)Nc2ccc3c(c2)OCCO3)cc1 |  | active: 14.6 µM |
| COc1cc2oc(=O)cc(CN3CCCCC3)c2cc1Cl | inactive: 3.26% |  |
| Clc1ccc(-c2csc3ncnc(NCCN4CCOCC4)c23)cc1 |  | inconclusive: 23.1 µM [cytotoxic, partial curve] |
| COc1ccc(C(=O)NCCc2sc(-c3cccc(F)c3)nc2C)cc1 | inactive: -14.3% |  |
| O=C(CN1CCc2ccccc2C1)Nc1cc(S(=O)(=O)N2CCOCC2)ccc1N1CCCC1 |  | active: 4.11 µM |
| C/C(=N\NC(=O)CNC(=O)c1cccs1)c1ccc(Cl)c(Cl)c1 | inactive: -0.283% |  |
| CCn1ncc2c1C(=O)NC1c3ccccc3C(=O)N21 (stereo not given) |  | inconclusive: 29.1 µM [cytotoxic, single point] |
| O=[N+]([O-])c1ccc(Sc2nc3ccccc3o2)c([N+](=O)[O-])c1 |  | inconclusive: 18.4 µM [cytotoxic, single point] |
| CCC(C)[C@H](NC(=O)NCc1ccccc1)C(=O)O (stereo not given in full) |  | inconclusive: 10.3 µM [rising, partial curve, poor fit] |
| CCC1Oc2ccc(C)cc2N(CC(=O)N(Cc2ccncc2)Cc2ccco2)C1=O (stereo not given) |  | inconclusive: 4.11 µM [cytotoxic, full curve] |
| COC(=O)c1[nH]c2ccc(C)cc2c1NC(=O)c1ccccc1[N+](=O)[O-] |  | active: 16.4 µM |
| COc1cc(/C=C/c2ccc(O)cc2)cc(OC)c1 | inactive: 17.6% |  |
| Cc1ccc(C(=O)Nc2ccccc2Oc2ccccc2)cc1[N+](=O)[O-] |  | inconclusive: 11.2 µM [cytotoxic, partial curve] |
| CCCCn1c(N)c(N(CC)C(=O)c2cccs2)c(=O)[nH]c1=O |  | inconclusive: 13 µM [rising, partial curve] |
| CCCCCCCCN1C(=O)[C@H](CC(=O)N2CCCC2)C[C@@]2(C(=O)OC)CCCCC=C12 |  | inconclusive: 7.31 µM [cytotoxic, partial curve] |
| O=C(N/N=C/c1ccc(Br)s1)c1cccc([N+](=O)[O-])c1 |  | inconclusive: 5.17 µM [cytotoxic, full curve] |
| COc1ccc(CCNC(=O)c2cc(S(=O)(=O)N3CCOCC3)ccc2N2CCCC2)cc1OC | inactive: -5.22% |  |
| CC1CCc2nc(NC(=O)COc3ccc(C(C)(C)C)cc3)sc2C1 (stereo not given) |  | inconclusive: 29.1 µM [cytotoxic, single point] |
| N=c1oc2ccccc2cc1-c1nc(-c2ccccc2)cs1 |  | active: 23.1 µM |
| O=S(=O)(Nc1cccc(-c2ccc(N3CCCCC3)nn2)c1)c1cccs1 |  | inconclusive: 1.84 µM [cytotoxic, full curve, poor fit] |
